# Measurements as given in US20120202756A1, “USE OF PRODRUGS TO AVOID GI MEDIATED ADVERSE EVENTS” (priority 2009, published 2012).
# Where two headings read alike, the source gives them in different places.
# What was measured:
# in vivo = settings: male rats
# Procedure: (§1) Serial tail vein blood samples were subsequently collected via an indwelling cannuala into EDTA tubes containing a stabilising cocktail (including 6 mg/mL NaF) to prevent post collection enzymic hydrolysis of the prodrug.
# [1] = male rats
# Procedure: as §1
Structure (SMILES),"AUC(0-t) (in vivo; male, Sprague Dawley, rat, in vivo, po, 5 mg clindamycin equivalents/kg, AUCt, plasma clindamycin, oral 5 mg clindamycin equivalents/kg, mean)","Cmax (in vivo; male, Sprague Dawley, rat, in vivo, po, 5 mg clindamycin equivalents/kg, plasma clindamycin, oral 5 mg clindamycin equivalents/kg, individual animals)","Cmax (in vivo; male, Sprague Dawley, rat, in vivo, po, 5 mg clindamycin equivalents/kg, plasma clindamycin, oral 5 mg clindamycin equivalents/kg, mean)","Tmax (in vivo; male, Sprague Dawley, rat, in vivo, po, 5 mg clindamycin equivalents/kg, Tmax, plasma clindamycin, oral 5 mg clindamycin equivalents/kg, mean)",time of peak plasma levels after dosing (in vivo; oral),time of peak plasma levels after dosing ([1]; oral),"t½ ([1]; plasma donepezil, oral 1 mg donepezil equivalents/kg, mean)"
"CCC[C@@H]1C[C@@H](C(=O)N[C@@H]([C@H]2O[C@H](SC)[C@H](O)[C@@H](O)[C@H]2O)[C@H](C)Cl)N(C)C1 [Clindamycin, clindamycin, reference compound]",472 ng·h/mL,251 ng/mL,256 ng/mL,18 min,≤ 15 min,–,–
"COc1cc2c(cc1OC)C(=O)C(CC1CCN(Cc3ccccc3)CC1)C2 (stereo not shown) [Donepezil, donepezil, reference compound]",–,–,–,–,–,≤ 35 min,3.1 h
